No constants are given. Whether binding was seen depends on the method and setting. In cells and extracts the contact can be indirect. Some binding calls cover weakened binding; strength is not graded here.
Tests used:
[1] = target: NS5A expressed from pTM-NS5A (T7 promoter) (hepatitis C virus (strain not stated)) (UniProt Q99IB8); experiment: co-IP; T7 Pol/Huh7 cells cotransfected with pTM-NS5A and pTM-NS5B, treated with DMSO or CK37 (100 μM, 24 h); lysates precipitated with NS5A MAb or isotype IgG; immunoblot
[2] = target: hCKα tagged with Myc and DDDK (Flag) at the C terminus (pCMV6-hCKα; pCMV6-hCKα-R) (human) (UniProt P35790); experiment: co-IP; Huh7 cells expressing hCKα-Flag and HA-NS5A; lysates precipitated with rabbit anti-Flag; immunoblot
[3] = target: HA-tagged NS5A of the genotype 1b Con1 strain (hepatitis C virus genotype 1b Con1 strain) (UniProt Q9WMX2); experiment: co-IP; 293T cells cotransfected with HA-tagged Con1 NS proteins and hCKα-Flag; lysed with 1% CHAPS; precipitated with rabbit anti-HA; immunoblot
[4] = target: NS5A expressed from pTM-NS5A (T7 promoter) (hepatitis C virus (strain not stated)) (UniProt Q99IB8); experiment: co-IP; control and hCKα stable knockdown Huh7 cells with T7 RNA polymerase, transfected with wild-type hCKα, hCKα-R or D288A hCKα-R, then with pTM-NS5A and pTM-NS5B; lysates precipitated with NS5A MAb or isotype IgG; immunoblot

The chains behind the UniProt entries cited, without tags or fusion partners. Where a name states a change or a piece, a line headed by the entry shows the natural chain unless it says otherwise. A line that says so, or that is headed by a name, gives the form on record, which may keep a tag or linker. Residues count along the entry.
UniProt Q99IB8, residues 1977-2442: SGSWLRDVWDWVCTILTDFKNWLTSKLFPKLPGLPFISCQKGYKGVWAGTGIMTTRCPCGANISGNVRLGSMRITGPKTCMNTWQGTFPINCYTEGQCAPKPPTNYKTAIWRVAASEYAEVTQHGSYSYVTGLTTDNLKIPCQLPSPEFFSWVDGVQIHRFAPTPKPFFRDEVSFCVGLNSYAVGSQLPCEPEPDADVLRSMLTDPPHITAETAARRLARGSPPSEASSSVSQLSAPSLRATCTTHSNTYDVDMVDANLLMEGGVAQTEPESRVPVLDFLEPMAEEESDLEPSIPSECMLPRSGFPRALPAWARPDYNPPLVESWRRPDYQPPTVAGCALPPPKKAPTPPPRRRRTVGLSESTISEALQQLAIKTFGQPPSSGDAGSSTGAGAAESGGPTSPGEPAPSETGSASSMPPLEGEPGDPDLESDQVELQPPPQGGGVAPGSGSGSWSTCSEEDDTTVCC
UniProt P35790: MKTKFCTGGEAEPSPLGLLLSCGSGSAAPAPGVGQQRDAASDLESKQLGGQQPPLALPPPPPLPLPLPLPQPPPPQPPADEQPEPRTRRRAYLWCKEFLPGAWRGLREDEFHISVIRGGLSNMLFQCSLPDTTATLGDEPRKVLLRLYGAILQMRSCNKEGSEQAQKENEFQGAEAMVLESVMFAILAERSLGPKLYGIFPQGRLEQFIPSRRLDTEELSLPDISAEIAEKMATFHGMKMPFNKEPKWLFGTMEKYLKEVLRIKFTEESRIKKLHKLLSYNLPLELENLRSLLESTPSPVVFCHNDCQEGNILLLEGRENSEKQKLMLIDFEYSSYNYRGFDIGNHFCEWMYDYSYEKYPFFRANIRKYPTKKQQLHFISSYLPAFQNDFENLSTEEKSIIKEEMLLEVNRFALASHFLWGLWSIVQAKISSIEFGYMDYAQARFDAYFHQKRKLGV
hCKα tagged with Myc and DDDK (Flag) at the C terminus (pCMV6-hCKα; pCMV6-hCKα-R) (P35790-2, form named): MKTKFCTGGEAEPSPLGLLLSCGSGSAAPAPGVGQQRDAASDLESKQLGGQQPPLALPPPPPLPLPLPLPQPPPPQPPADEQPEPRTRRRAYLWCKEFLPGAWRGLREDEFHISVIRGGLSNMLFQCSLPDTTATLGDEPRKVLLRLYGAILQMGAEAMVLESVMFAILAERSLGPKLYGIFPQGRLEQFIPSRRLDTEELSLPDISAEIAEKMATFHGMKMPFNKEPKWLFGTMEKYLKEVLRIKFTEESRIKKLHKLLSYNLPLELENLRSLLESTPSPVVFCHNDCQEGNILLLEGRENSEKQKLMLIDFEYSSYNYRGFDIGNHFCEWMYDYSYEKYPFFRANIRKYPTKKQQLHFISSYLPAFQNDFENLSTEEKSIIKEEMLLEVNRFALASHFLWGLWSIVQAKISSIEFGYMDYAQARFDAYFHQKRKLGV

human choline kinase-α (endogenous) (from UniProt P35790 1-457) (enzyme)
binding [1]: binds

HA-tagged NS5A of the genotype 1b Con1 strain (from UniProt Q9WMX2 1973-2419)
binding [2]: binds

hCKα tagged with Myc and DDDK (Flag) at the C terminus (pCMV6-hCKα; pCMV6-hCKα-R) (from UniProt P35790-2 1-439) (enzyme)
binding [3]: binds
binding [4]: binds
